Data from patent publication US20250388673A1.
Results are given in words; binding and its absence hold for the method and conditions named. Binding can be weak; no strength is given.

Biological target: cynomolgus BTLA (cynomolgus monkey)
Assay: flow cytometry, Expi293 cells overexpressing cynomolgus BTLA

Binder | binding
HFB6-4hz13-hG1 (antibody, human IgG1, V domains shown) VH: QVQLVQSGAEVKKPGSSVKVSCKTSGFNIKDTYIHWVRQAPGQGLEWIGRNDPANGNTKYAQKFQGRATITADESTSTAYMELSSLRSEDTAVYYCASYEGYYERFGYWGQGTLVTVSS VL: EIVLTQSPGTLSLSPGERATLSCRSSQSLLDRDGKTYLNWLQQKPGQAPRRLIYLVSKLDSGIPDRFSGSGSGTDFTLTISRLEPEDFAVYYCWQDTHFPYTFGQGTKLEIK | binds
HFB6-4hz14-hG1 (antibody, human IgG1, V domains shown) VH: QVQLVQSGAEVKKPGASVKVSCKTSGFNIKDTYIHWVRQAPGQGLEWIGRNDPANGNTKYAQKFQGRVTMTADTSTSTVYMELSSLRSEDTAVYYCASYEGYYERFGYWGQGTLVTVSS VL: EIVLTQSPGTLSLSPGERATLSCRSSQSLLDRDGKTYLNWLQQKPGQAPRRLIYLVSKLDSGIPDRFSGSGSGTDFTLTISRLEPEDFAVYYCWQDTHFPYTFGQGTKLEIK | binds
HFB6-4hz10-hG1 (antibody, human IgG1, V domains shown) VH: EVQLVESGGGLVQPGGSLKLSCATSGFNIKDTYIHWVRQASGKGLEWIGRNDPANGNTKYAASFKGRATISADDSKNTAYLQLNSLKTEDTAVYYCASYEGYYERFGYWGQGTLVTVSS VL: DVVMTQSPLSLPVTLGQPASISCRSSQSLLDRDGKTYLNWLQQRPGQSPRRLIYLVSKRDSGVPDRFSGSGSGTDFTLKISRVEAEDVGVYYCWQDTHFPYTFGQGTKLEIK | binds
HFB6-4hz11-hG1 (antibody, human IgG1, V domains shown) VH: QVQLQESGPGLVKPSGTLSLTCAVSGFNIKDTYIHWVRQPPGKGLEWIGRNDPANGNTKYNPSFKSRATISADKSKNQASLKLSSVTAADTAVYYCASYEGYYERFGYWGQGTLVTVSS VL: DVVMTQSPLSLPVTLGQPASISCRSSQSLLDRDGKTYLNWLQQRPGQSPRRLIYLVSKRDSGVPDRFSGSGSGTDFTLKISRVEAEDVGVYYCWQDTHFPYTFGQGTKLEIK | binds
HFB6-4hz12-hG1 (antibody, human IgG1, V domains shown) VH: EVQLVQSGAEVKKPGESLKISCKTSGFNIKDTYIHWVRQMPGKGLEWIGRNDPANGNTKYSPSFQGQVTISADKSISTAYLQLSSLKASDTAMYYCASYEGYYERFGYWGQGTLVTVSS VL: DVVMTQSPLSLPVTLGQPASISCRSSQSLLDRDGKTYLNWLQQRPGQSPRRLIYLVSKRDSGVPDRFSGSGSGTDFTLKISRVEAEDVGVYYCWQDTHFPYTFGQGTKLEIK | binds

Other lines, results leading:

binding | Binder
binds | HFB6-4hz19-hG1 (antibody, human IgG1, V domains shown) VH: QVQLVQSGAEVKKPGSSVKVSCKTSGFNIKDTYIHWVRQAPGQGLEWIGRNDPANGNTKYAQKFQGRATITADESTSTAYMELSSLRSEDTAVYYCASYEGYYERFGYWGQGTLVTVSS VL: DIVMTQSPDSLAVSLGERATINCKSSQSLLDRDGKTYLNWLQQKPGQSPKRLIYLVSKLDSGVPDRFSGSGSGTDFTLTISSLQAEDLAVYYCWQDTHFPYTFGQGTKLEIK
binds | HFB6-4hz20-hG1 (antibody, human IgG1, V domains shown) VH: QVQLVQSGAEVKKPGASVKVSCKTSGFNIKDTYIHWVRQAPGQGLEWIGRNDPANGNTKYAQKFQGRVTMTADTSTSTVYMELSSLRSEDTAVYYCASYEGYYERFGYWGQGTLVTVSS VL: DIVMTQSPDSLAVSLGERATINCKSSQSLLDRDGKTYLNWLQQKPGQSPKRLIYLVSKLDSGVPDRFSGSGSGTDFTLTISSLQAEDLAVYYCWQDTHFPYTFGQGTKLEIK
binds | HFB6-4hz17-hG1 (antibody, human IgG1, V domains shown) VH: QVQLQESGPGLVKPSGTLSLTCAVSGFNIKDTYIHWVRQPPGKGLEWIGRNDPANGNTKYNPSFKSRATISADKSKNQASLKLSSVTAADTAVYYCASYEGYYERFGYWGQGTLVTVSS VL: EIVLTQSPGTLSLSPGERATLSCRSSQSLLDRDGKTYLNWLQQKPGQAPRRLIYLVSKLDSGIPDRFSGSGSGTDFTLTISRLEPEDFAVYYCWQDTHFPYTFGQGTKLEIK
binds | HFB6-4hz15-hG1 (antibody, human IgG1, V domains shown) VH: EVQLVESGGGLVQPGRSLRLSCTTSGFNIKDTYIHWFRQAPGKGLEWVGRNDPANGNTKYTASFKGRATISADGSKSIAYLQMNSLKTEDTAVYYCASYEGYYERFGYWGQGTLVTVSS VL: EIVLTQSPGTLSLSPGERATLSCRSSQSLLDRDGKTYLNWLQQKPGQAPRRLIYLVSKLDSGIPDRFSGSGSGTDFTLTISRLEPEDFAVYYCWQDTHFPYTFGQGTKLEIK
binds | HFB6-4hz18-hG1 (antibody, human IgG1, V domains shown) VH: EVQLVQSGAEVKKPGESLKISCKTSGFNIKDTYIHWVRQMPGKGLEWIGRNDPANGNTKYSPSFQGQVTISADKSISTAYLQLSSLKASDTAMYYCASYEGYYERFGYWGQGTLVTVSS VL: EIVLTQSPGTLSLSPGERATLSCRSSQSLLDRDGKTYLNWLQQKPGQAPRRLIYLVSKLDSGIPDRFSGSGSGTDFTLTISRLEPEDFAVYYCWQDTHFPYTFGQGTKLEIK
binds | HFB6-4hz16-hG1 (antibody, human IgG1, V domains shown) VH: EVQLVESGGGLVQPGGSLKLSCATSGFNIKDTYIHWVRQASGKGLEWIGRNDPANGNTKYAASFKGRATISADDSKNTAYLQLNSLKTEDTAVYYCASYEGYYERFGYWGQGTLVTVSS VL: EIVLTQSPGTLSLSPGERATLSCRSSQSLLDRDGKTYLNWLQQKPGQAPRRLIYLVSKLDSGIPDRFSGSGSGTDFTLTISRLEPEDFAVYYCWQDTHFPYTFGQGTKLEIK
